Patent US7407939B2, “Protein kinase inhibitors comprising ATP mimetics conjugated to peptides or peptidomimetics” (CureGenics Ltd., priority 2001, dated 2008)
Part of at least one peptide drawing is inferred or uncertain, most often the ends. For part of these data: At least one structure is not confirmed: it was looked up by name or label, or the drawing left a doubt. *1 amine or outer side, *2 acyl side, *3 side chain or, on linkers, in order; H or OH if unused. Where a SMILES comes first, the peptide text is derived from it. Side-chain parts run from the residue outwards. [ ]: non-standard residue; d: D form. The star is where a group is joined. ξ: configuration not given here. Isoquinoline5sulfonyl = O=S(=O)(c1cccc2cnccc12)*; Ethylenediamine = C(CN[*:2])N[*:1]; Nle = CCCC[C@H](N)C(=O)O; ξE = NC(CCC(=O)O)C(=O)O; GABA = NCCCC(=O)O

Chains of the proteins cited; added tags and fusions are not shown.
UniProt P31749, whole entry, species assumed: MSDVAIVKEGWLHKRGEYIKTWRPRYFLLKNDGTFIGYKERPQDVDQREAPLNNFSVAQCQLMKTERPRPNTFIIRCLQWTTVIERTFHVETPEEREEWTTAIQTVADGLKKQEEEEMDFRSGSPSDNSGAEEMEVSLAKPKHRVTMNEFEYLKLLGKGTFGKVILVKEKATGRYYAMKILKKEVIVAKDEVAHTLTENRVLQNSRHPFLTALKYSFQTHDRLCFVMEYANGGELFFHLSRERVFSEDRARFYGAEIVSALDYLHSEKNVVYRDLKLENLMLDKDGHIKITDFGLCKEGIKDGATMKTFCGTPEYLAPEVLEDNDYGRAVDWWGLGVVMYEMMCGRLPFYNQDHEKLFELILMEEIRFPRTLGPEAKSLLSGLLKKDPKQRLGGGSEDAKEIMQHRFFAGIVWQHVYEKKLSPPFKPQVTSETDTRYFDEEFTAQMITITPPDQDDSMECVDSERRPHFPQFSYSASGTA

Experiments:
PKB = target: T1, PKB (Homo sapiens, UniProt P31749); assay: PKB in vitro kinase activity assay (soluble His-HA-PKB / SPA bead screening); type: biochemical
T1 construct: His; HA; made in house

PC-3 cells = assay: ssDNA apoptosis ELISA (induction of apoptosis in prostate cancer cells); type: cell-based; details: 50 μM, optical density of treated divided by untreated cells
Procedure: Cells were assayed for Apoptosis using the ssDNA Apoptosis ELISA kit (Chemicon International Inc.). Cells were seeded in 96-well plates (5000 cells/well) and treated with different concentrations of the inhibitors. At different time point, plates were centrifuges at 200 g for 5 min, medium was removed and the cells were fixed with 80% methanol in PBS for 30 min at room temperature. Plates were dried by floating in a waterbath at 37° C. for 20 minutes. 50 μl of Formamide was added to each well and incubate at room temperature for 10 min. Plates were heated to 75° C. in a circulating waterbath for 10 min, cooled in refrigerator for 5 min, and then formamide was removed. […] Plates were monitored for colour development by ABTS using microplate reader at 405 nm.
DNA in apoptotic cells is sensitive to denaturation by formamide in contrast to necrotic cells. […] The specific denaturation was detected with monoclonal antibody to single stranded DNA. Using ssDNA Apoptosis ELISA kit (Chemicon International, Inc.) chimeric compounds were analyzed for their potential to induce apoptosis in PC-3 cells compared to TRAIL (TNF-related apoptosis-inducing ligand), a known apoptotic agent (R&D Systems, Inc.). Results are presented in values of apoptotic index which is calculated by dividing the optical density of treated and untreated cells.

CCCC[C@H](NC(=O)[C@H](CO)NC(=O)[C@H](CO)NC(=O)[C@H](CCCC)NC(=O)[C@H](CCCNC(=N)N)NC(=O)[C@@H]1CCCN1C(=O)[C@@H](N)CCCNC(=N)N)C(N)=O [AR 60003-62, Arg-Pro-Arg-Nle-Ser-Ser-Nle] (H-RPR[Nle]SS[Nle]-NH2)
IC50 (PKB; Table 3, linear 7-mer peptides): < 1 µM

N=C(N)NCCC[C@H](NC(=O)[C@@H]1CCCN1C(=O)[C@@H](N)CCCNC(=N)N)C(=O)N[C@@H](CCCN)C(=O)N[C@@H](CCC(=O)NCCNS(=O)(=O)c1cccc2cnccc12)C(=O)N[C@@H](CO)C(=O)N[C@@H](Cc1ccccc1)C(N)=O [PTR 6132, Arg-Pro-Arg-Orn-Glu-(5-aminoethylsulfonamide-isoquinoline)-Ser-Phe]
Apoptotic index (48 hours) (PC-3 cells): 2.0

C[C@@H](O)[C@H](NC(=O)[C@H](CCCNC(=N)N)NC(=O)[C@@H]1CCCN1C(=O)[C@@H](N)CCCNC(=N)N)C(=O)N[C@@H](CO)C(=O)NC(CCC(=O)NCCCC(=O)NCCNS(=O)(=O)c1cccc2cnccc12)C(=O)N[C@@H](Cc1ccccc1)C(N)=O (stereo partly drawn) [PTR 6020] (H-RPRTS[ξE]([GABA-Ethylenediamine-Isoquinoline5sulfonyl])F-NH2)
IC50 (PKB; Table 2, chimeric compounds): > 20 µM
